According to PMC12429265:
Results are given in words; binding and its absence hold for the method and conditions named. In cells and extracts the contact can be indirect. Some binding calls cover weakened binding; strength is not graded here. For part of these data: Where a sequence is shown, tags or fusion partners need not be part of it.

By UniProt entry, the sequences of proteins in these tests, tags left out.
UniProt Q9VXE6: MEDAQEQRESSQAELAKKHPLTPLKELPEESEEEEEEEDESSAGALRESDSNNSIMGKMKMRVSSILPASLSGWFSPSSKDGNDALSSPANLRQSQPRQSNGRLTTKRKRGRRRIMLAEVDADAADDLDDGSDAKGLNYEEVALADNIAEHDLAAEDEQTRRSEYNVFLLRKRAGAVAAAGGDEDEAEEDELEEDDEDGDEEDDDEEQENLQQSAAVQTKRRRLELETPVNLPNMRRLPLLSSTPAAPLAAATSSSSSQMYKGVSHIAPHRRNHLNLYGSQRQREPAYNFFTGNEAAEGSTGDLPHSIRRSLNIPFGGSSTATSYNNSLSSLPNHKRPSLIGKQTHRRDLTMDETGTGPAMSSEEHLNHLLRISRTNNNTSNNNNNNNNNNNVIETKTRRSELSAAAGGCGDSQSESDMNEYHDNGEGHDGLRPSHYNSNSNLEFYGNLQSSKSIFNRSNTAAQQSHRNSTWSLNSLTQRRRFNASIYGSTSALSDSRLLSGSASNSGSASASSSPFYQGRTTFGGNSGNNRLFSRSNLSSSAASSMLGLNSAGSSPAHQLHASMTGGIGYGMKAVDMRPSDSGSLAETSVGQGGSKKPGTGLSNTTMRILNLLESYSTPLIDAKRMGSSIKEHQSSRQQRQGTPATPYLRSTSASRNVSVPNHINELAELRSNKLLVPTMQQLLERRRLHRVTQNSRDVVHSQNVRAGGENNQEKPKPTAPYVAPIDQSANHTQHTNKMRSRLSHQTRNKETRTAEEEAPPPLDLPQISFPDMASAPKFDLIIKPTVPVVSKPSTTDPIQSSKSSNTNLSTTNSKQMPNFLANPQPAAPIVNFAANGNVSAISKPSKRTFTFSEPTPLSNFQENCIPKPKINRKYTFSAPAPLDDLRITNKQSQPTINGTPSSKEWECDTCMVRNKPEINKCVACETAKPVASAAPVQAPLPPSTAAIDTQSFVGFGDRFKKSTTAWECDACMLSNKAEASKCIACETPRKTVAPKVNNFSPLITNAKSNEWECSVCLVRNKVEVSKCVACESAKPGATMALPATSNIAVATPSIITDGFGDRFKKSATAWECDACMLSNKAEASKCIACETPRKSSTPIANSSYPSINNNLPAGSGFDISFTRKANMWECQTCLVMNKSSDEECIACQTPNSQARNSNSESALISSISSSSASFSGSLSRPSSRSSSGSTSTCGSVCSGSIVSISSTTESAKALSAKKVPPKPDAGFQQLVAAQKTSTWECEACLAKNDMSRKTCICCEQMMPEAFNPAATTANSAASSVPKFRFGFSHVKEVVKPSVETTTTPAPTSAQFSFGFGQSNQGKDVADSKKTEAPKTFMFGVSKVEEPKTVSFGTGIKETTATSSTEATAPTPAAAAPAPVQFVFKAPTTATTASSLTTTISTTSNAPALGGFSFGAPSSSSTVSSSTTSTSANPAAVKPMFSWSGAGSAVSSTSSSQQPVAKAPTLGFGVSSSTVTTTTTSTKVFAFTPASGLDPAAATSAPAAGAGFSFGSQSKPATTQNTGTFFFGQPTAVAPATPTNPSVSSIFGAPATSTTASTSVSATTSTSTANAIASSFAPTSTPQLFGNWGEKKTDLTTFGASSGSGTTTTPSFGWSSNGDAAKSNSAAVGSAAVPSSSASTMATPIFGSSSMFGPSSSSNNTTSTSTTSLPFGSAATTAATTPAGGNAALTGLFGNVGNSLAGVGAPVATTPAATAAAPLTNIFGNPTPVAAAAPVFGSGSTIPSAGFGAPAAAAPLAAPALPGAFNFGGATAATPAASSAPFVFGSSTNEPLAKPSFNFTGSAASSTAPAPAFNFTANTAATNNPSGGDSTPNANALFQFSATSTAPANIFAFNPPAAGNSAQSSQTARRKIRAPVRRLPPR

T1: HA-tagged N-TPR (1-1115 aa) (Drosophila) (UniProt A1Z8P9)
T1 sequence: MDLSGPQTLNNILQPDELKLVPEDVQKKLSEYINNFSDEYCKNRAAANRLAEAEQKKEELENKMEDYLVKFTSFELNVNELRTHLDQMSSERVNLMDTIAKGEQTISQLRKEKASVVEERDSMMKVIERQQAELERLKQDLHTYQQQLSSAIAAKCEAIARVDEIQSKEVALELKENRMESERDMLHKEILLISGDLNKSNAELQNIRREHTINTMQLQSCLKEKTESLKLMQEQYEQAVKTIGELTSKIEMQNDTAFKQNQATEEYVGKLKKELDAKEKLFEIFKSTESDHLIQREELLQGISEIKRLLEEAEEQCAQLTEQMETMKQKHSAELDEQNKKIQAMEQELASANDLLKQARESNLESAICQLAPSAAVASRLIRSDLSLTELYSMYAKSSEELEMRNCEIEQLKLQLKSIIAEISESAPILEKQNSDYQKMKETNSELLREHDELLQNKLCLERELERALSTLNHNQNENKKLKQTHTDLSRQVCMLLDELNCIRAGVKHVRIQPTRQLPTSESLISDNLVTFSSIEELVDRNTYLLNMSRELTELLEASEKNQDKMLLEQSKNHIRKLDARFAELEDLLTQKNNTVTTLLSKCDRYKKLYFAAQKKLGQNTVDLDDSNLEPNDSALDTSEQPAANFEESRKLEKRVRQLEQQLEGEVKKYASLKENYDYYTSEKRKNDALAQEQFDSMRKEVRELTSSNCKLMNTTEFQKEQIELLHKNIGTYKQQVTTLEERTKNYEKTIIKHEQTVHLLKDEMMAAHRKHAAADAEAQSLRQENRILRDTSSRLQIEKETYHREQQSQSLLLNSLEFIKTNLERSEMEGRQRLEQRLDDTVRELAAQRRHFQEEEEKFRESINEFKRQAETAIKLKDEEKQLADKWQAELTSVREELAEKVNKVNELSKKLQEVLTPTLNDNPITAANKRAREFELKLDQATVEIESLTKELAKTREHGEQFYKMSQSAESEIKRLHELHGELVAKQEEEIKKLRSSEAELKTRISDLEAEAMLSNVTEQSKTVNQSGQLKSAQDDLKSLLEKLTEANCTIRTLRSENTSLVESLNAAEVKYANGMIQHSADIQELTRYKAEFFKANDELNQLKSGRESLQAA

B1: FLAG-tagged ENY2 (protein, UniProt Q9VYX1 1-101)
chain: MSTSGAVDQYTVLTGDRSKIKDLLCSRLTECGWRDEVRLMCRNILMEKGTNNSFTVEQLIAEVTPKARTLVPDAVKKELLMKIRTILTEIEEEPDEPEDES
B2: FLAG-tagged Xmas-2 (protein, UniProt Q9U3V9-1 1-1370)
chain: MAEPRPGGYNYKTLLCRNIPELFLDKYVARSHFGRFGTLVNFVLRPRRMTCTVSYASEDEAARALLDGASFQGHLFDISYADNETAPAQKTEEWVDPDIQAELSALQSGWRNEYGSGKPIKKPQNGSSGSGGSSMLPAIPVGPATAPVSRDRTPAQLRDLENMMRRPAHTSEEKFSVLDARDKLLRLNRTQHKLSGATQGHCADMCPEKERVLREFQRQVAYYELQPGSDELICHERALKQYSRSSADQETPLPHELRNETALHMTMSYLMHEIMDISERQDPQSHMGDWFHFVWDRTRSIRKEITQQELCSLGAVKLVEQCARFHIHCAARLVDADPSVFDSKINAENLTKCLQTLKYMYHDLRIKGVPCPKEAEFRGYIVLLNLADANFLWDIGQLPAELQSCPEVRQAIQFYLALQDTNFVRFFQLLADKDTSYLSACILVNYFTRLRVLGLHRLIQAYRSPRKDEVSSLPLSYIAELLSFASEQEAADFVQHYGLQINEAGRVVLSRMHTVETEYKLPRQYELVEVKRVKSVGEVVSGEPLPPRDLYLNHRPHNSFDDYGMLKSIAWTAKDQLAGMQQEEMQPQMPSQPPAVSKHSDTLFKVPMQPDGTAAGFGVFAAAAVPPASSIDGFSFVLPKSRAQEFQEQAPATQQRRAQEEAKHQALQVAIAAAKKREAELMAIHEAKVAEAERVRQQKLRERQEQQRRQQQELEEQRQREQEKLQLEKERQLKLEQLFFVQQQEREAHKQTRTLELYQEIFQDTLAEICQSEFMSHSRACRSYESMLDSITRDLVERQMEQSIYELGVMRVCIRRWRKYRRTQQEKDTLFNQLPLSFGAENPEGVVNKRSMEDSLRLSRRYRLGEPCDYGKLLAGLEEHSWLKLDLWHVLDKCLPVAQPGARRFYKLLISLSGGQEGLQLNCDLDRGLLQQPQSPDARFVDGGYIRGFSQGIGLSVMKIRDDDHDWKATDLAEANGIICLIGLDDIRLLPDRLKPLLQASRCHDVAVIVQHPANTAFVQPDIPLQELCLRSFNIFRLRKSGNNRQRLMIALESAVKFLAKATERKRVGHLHQVETREYLLVNLGSELFRRLKYAAEHDTAIRSDTQLNPQRCVDLFNEAVHRLQLVAGEDLSDWPQFPEELRVFVQPLPIESSLNTNRLEHFEPGWHLPERRQRIVQLLERCKLPKMPVLPRSSSLAEAQCQWVLDYAQISQQEDCVEQIALQAIKILQYDTDDYLNFVEYLAGERMQYILRQERNPPQGIVYNTKTLKRRFLSAWYYEFREPQIYEPVPAEENAQMLEKQPSSQAEVQQLDFDEITSKAEAVLKRFHQRQDERHTLRELNRSHKSRKRRDASDHKHASKHKRKRSKSK
B3: FLAG-tagged PCID2 (protein, UniProt Q9VTL1 1-395)
chain: MFGTVNNYLSGVLHAAQDLDGESLATYLSLRDVHVQNHNLYIAQPEKLVDRFLKPPLDEVVSAHLKVLYHLAQEPPGYMEAYTQQSAACGAVVRLLQQLKDENWCLPLMYRVCLDLRYLAQACEKHCQGFTPGHVLEKAADCIMACFRVCAADGRASEEDTKRLGMMNLVNQLFKIYFRINKLHLCKPLIRAIDNCIFKDSFPLPEQITYKYFVGRRAMFDSNYQAAVQYLSYAFSNCPDRFASNKRLILIYLVPVKMLLGYLPSKSLLQRYDLLLFLDLAMAMKAGNVNRFDEIVRDQELVLIRSGIYLLVEKLKFLVYRNLFKKVFVIRKSHQLDMGDFLSALHFVGLTDVSLDETHCIVANLIYDGKIKGYISHAHNKLVVSKQNPFPSVSL
B4: Xmas-2 (protein, UniProt Q9U3V9-1 1-1370)
chain: B2 chain
B5: PCID2 (protein, UniProt Q9VTL1 1-395)
chain: B3 chain

Columns and labels:
[1] = target: T1, HA-tagged N-TPR (1-1115 aa) (Drosophila); test: co-IP; called pull-down assay; FLAG-tagged TREX-2 subunits co-expressed in pairs with HA-tagged Nup153 or TPR fragments in S2 cells for 4 days; lysis in 10 mM HEPES pH 7.9, 5 mM MgCl2, 0.5% NP-40, 0.45 M NaCl, 1 mM DTT; extract treated with DNase I and RNase; anti-FLAG M2 agarose or anti-HA agarose; Western blot
[2] = target: HA-tagged Nup153 (Drosophila) (UniProt Q9VXE6); test: as above
[3] = target: TPR/Megator (Drosophila (endogenous in embryos)) (UniProt A1Z8P9); test: co-IP; endogenous proteins; nuclear extract from 0 to 12 h Drosophila embryos treated with DNase and RNase; polyclonal antibodies against TREX-2 subunits, Nup153 or TPR on protein A-Sepharose; IP buffer 25 mM Tris-HCl pH 7.9, 10% glycerol, 0.1% NP-40, 0.5 mM DTT, 5 mM MgCl2, 100 mM KCl; washes with 500 mM KCl and 100 mM KCl; Western blot

Binder | binding [1] | binding [2] | binding [3]
B1 | binds weakly | binds | 
B2 | binds weakly |  | 
B3 | binds weakly |  | 
B4 |  |  | binds weakly
B5 |  |  | binds weakly
